This note sets out measurements from the supplement of paper PMC10849652.

Protein sequences, listed by entry. Tags and fused reporters are not part of them. Lines headed by an entry give the natural chain unless they say otherwise; changes in a name come on top.
UniProt O00623: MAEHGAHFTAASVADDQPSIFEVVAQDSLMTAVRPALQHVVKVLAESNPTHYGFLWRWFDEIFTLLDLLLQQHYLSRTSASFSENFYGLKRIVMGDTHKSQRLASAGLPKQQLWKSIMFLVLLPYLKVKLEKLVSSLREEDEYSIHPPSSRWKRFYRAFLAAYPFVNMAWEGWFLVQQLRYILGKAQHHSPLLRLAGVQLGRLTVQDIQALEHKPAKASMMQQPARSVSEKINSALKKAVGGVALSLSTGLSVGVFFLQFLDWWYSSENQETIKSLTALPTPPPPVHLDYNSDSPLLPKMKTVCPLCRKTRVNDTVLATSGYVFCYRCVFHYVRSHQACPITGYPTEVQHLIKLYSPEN
UniProt O00330, whole entry, looked up: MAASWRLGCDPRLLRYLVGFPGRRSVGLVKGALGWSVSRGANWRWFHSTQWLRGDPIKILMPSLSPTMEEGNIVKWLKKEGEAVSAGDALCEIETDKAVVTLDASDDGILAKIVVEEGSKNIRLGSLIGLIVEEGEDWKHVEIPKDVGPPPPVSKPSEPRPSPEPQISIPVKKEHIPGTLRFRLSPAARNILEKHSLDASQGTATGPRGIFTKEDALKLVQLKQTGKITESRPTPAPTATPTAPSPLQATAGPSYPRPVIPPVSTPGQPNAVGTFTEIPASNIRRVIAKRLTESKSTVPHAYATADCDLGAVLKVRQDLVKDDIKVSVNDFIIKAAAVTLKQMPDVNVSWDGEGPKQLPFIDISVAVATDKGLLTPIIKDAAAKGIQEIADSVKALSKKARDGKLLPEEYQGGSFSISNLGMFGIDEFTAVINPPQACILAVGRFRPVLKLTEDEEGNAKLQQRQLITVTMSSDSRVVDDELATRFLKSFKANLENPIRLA
UniProt Q9NVE7: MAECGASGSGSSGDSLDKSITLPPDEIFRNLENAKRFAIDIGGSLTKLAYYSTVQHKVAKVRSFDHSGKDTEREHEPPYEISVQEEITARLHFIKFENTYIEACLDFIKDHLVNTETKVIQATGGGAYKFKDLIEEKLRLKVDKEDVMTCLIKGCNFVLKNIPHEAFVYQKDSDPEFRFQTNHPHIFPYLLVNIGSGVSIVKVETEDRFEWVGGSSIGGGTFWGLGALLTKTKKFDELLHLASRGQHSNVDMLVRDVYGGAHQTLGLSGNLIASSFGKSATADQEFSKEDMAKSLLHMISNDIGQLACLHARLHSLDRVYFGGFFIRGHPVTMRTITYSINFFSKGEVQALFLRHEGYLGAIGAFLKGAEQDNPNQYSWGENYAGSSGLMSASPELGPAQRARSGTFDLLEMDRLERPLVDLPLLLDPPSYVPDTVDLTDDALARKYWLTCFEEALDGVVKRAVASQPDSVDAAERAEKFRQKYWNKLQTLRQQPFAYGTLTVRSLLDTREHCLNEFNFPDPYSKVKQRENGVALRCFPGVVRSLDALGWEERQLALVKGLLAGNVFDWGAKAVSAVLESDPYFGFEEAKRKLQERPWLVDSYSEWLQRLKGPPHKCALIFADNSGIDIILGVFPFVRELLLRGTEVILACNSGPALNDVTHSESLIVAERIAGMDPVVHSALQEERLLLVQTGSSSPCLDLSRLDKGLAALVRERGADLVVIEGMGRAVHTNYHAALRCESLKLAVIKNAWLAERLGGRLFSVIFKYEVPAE
UniProt Q13177, whole entry, looked up: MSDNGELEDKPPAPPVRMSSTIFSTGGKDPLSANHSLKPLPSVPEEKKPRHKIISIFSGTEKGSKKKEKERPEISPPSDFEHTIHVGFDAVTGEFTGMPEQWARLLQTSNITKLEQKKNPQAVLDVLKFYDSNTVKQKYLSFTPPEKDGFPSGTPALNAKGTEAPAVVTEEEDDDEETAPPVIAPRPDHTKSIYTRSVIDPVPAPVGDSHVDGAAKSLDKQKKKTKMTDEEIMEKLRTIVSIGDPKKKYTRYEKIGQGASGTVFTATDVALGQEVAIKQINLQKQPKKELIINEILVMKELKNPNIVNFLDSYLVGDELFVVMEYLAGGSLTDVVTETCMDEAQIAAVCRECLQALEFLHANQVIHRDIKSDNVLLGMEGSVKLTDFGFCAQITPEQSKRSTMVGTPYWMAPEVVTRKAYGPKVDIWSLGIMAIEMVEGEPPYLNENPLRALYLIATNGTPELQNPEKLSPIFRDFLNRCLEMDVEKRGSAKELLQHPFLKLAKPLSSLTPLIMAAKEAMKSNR
UniProt Q96GD0: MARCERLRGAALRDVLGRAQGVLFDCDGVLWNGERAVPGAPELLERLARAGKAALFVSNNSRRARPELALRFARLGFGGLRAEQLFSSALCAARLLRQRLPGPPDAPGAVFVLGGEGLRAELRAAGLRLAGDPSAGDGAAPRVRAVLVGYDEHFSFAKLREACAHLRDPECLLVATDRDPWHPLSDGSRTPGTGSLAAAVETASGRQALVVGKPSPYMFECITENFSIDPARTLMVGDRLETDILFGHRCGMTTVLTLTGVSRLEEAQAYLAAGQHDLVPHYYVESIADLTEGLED
UniProt O43933: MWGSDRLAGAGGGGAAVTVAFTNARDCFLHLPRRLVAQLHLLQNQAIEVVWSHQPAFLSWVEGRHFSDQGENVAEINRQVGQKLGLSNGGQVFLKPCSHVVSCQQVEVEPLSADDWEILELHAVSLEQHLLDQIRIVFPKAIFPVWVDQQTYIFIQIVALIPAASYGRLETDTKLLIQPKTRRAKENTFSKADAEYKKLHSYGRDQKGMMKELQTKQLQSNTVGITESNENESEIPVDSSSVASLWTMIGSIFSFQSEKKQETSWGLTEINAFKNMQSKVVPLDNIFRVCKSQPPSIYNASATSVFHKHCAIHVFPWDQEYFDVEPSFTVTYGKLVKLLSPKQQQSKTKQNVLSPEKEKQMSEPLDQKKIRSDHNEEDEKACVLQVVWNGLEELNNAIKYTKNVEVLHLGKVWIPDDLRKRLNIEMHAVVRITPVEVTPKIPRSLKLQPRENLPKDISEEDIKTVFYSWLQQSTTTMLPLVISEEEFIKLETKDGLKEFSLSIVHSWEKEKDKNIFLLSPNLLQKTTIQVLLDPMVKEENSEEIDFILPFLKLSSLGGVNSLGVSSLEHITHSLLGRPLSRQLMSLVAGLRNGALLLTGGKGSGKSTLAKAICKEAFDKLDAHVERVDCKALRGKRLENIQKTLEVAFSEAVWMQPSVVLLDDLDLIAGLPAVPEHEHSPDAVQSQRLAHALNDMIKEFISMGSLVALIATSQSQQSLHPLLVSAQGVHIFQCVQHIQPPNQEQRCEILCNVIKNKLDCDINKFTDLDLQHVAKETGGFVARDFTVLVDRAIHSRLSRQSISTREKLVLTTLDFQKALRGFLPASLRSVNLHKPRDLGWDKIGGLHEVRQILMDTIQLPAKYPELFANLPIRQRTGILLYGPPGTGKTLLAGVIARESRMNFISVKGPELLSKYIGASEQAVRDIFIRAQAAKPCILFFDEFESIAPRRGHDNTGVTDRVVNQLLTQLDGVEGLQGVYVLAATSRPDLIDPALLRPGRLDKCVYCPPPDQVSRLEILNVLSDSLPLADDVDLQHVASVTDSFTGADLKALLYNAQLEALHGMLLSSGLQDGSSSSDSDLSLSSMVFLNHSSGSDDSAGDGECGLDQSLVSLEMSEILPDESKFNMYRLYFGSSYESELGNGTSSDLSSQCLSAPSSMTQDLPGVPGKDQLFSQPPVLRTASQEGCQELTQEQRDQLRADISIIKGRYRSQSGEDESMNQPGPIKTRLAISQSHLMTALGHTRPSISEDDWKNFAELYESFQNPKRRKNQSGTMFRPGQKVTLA
UniProt Q99497, whole entry, looked up: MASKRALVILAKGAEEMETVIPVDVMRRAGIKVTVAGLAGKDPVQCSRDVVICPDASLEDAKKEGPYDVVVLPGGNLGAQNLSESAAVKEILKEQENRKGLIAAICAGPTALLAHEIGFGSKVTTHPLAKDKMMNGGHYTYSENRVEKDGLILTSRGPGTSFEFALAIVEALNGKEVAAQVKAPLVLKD
UniProt Q9BUL8: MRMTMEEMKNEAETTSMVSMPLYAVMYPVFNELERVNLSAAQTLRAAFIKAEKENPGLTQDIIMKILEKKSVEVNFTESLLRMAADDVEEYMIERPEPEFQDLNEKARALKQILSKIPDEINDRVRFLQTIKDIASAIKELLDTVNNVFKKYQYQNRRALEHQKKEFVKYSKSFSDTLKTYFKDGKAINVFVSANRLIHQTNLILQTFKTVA
UniProt P51003: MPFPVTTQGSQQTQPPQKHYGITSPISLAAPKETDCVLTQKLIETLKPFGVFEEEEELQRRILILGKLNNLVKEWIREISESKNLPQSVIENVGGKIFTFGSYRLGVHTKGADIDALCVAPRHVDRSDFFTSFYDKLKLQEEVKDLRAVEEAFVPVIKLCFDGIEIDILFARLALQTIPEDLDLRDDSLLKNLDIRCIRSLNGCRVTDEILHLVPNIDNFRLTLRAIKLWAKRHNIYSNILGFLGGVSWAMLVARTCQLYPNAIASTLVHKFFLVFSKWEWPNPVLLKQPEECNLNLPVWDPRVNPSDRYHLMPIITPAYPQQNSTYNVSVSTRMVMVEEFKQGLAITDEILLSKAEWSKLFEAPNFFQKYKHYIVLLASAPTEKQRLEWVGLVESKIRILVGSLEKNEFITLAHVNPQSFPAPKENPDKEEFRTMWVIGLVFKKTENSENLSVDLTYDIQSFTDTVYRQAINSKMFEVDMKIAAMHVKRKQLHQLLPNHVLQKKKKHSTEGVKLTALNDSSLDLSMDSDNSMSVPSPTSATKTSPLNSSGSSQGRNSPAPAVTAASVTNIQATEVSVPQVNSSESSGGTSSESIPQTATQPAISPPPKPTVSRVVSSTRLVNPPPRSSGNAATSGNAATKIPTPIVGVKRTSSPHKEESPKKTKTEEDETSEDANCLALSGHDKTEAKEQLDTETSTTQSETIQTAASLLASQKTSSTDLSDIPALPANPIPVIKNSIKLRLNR
UniProt Q9HBI1: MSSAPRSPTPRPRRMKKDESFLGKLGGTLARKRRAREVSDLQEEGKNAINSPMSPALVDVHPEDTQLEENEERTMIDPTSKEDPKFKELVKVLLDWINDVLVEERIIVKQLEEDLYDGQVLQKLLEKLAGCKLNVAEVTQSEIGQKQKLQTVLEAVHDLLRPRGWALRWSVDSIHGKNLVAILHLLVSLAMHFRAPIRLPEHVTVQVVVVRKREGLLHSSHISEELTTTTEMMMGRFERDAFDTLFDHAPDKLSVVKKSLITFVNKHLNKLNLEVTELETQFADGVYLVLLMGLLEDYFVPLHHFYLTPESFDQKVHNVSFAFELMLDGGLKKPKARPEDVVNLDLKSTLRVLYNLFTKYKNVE
UniProt P30101, whole entry, looked up: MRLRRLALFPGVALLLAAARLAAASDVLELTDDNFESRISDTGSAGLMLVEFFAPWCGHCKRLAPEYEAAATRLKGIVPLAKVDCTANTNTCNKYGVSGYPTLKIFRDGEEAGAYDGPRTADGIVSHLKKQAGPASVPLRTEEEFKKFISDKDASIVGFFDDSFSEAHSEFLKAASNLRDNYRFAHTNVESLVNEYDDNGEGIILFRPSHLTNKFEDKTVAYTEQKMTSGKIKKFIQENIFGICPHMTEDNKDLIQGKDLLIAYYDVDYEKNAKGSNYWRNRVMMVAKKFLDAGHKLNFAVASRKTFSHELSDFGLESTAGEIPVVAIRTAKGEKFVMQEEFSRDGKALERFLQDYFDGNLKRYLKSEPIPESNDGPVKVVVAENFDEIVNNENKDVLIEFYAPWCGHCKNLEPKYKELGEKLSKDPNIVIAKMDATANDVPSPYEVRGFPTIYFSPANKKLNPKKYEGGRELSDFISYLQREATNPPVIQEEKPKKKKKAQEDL
UniProt Q9H074: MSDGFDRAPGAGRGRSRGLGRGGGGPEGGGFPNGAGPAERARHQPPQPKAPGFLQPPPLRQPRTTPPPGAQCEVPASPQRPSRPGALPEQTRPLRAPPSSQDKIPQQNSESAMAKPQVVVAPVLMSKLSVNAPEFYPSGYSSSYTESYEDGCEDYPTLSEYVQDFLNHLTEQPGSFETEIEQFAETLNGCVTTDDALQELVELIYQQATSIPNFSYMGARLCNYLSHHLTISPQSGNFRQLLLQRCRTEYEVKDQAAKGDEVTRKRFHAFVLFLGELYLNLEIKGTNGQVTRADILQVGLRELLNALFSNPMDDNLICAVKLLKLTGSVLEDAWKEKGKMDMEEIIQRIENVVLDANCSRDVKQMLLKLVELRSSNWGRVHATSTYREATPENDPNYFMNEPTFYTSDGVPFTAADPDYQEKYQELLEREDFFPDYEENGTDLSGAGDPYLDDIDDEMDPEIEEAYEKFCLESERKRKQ
UniProt Q13371: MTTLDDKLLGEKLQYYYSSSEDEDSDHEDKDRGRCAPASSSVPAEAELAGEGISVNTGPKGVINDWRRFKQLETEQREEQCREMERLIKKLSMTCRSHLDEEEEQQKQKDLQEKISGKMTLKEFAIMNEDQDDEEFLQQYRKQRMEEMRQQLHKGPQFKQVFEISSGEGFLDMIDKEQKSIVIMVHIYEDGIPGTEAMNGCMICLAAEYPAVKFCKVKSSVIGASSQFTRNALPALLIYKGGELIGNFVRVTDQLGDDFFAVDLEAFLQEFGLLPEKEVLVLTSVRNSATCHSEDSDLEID

This is one part of the list.

Compound in the first assay: Cn1cc(-c2ccc3nnc(C(F)(F)c4ccc5ncccc5c4)n3n2)cn1
The assay is described as follows: log2 fold change, soluble protein after heating vs DMSO (PISA); higher = thermal stabilisation; K562 cells, 10 uM, 30 min; active = over 0.2 and 3.5 SD of the protein, either way, in both replicates (recomputed). The method, boiled down:
(§1)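 K562 cells at 2×10^6 cells/mL were treated with 10 μM compound for 30 min. Aliquots were heated for 3 min across 48°C-58°C, pooled, and extracted in PBS with 0.5% NP-40 at 4°C; soluble protein was the supernatant after 21,000xg for 90 min. Soluble protein was quantified by TMTpro 16plex LC-MS/MS with channel sums equalised, and reported as log2 fold change in thermal stability against DMSO controls, with values from duplicates.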
In the case of PEX12 (UniProt O00623), the log2 fold change was inactive: 0.011.
Still for that read-out and setting: for PDHX (UniProt O00330) the value was inactive: -0.086; for PANK4 (UniProt Q9NVE7), inactive: 0.026.
Same read-out and setting: under PDSS1 (UniProt Q5T2R2) stands inactive: -0.031.
Still for that read-out and setting: under PDLIM1 (UniProt O00151) stands inactive: -0.019; under PDLIM4 (UniProt P50479), inactive: 0.001.
With PAK2 (UniProt Q13177), the log2 fold change is inactive: 0.047.
Regarding PACSIN2 (UniProt Q9UNF0), the log2 fold change is inactive: 0.03.
On the same count and under the same terms, for PDXDC1 (UniProt Q6P996) the value was inactive: -0.158.
Consider PASK (UniProt Q96RG2), for which the log2 fold change is inactive: -0.035.
PARD6B (UniProt Q9BYG5): the log2 fold change was inactive: 0.09.
On the same count and under the same terms, for PEBP1 (UniProt P30086) the value was inactive: 0.049; for PCYOX1 (UniProt Q9UHG3), inactive: 0.004.
As for PDXP (UniProt Q96GD0), the log2 fold change is inactive: 0.036.
The same measure, in the same setting: for PER3 isoform 2 (UniProt P56645) the value was inactive: -0.126; for PEX1 (UniProt O43933), inactive: 0.004; for PARK7 (UniProt Q99497), inactive: -0.007.
Take PAK1IP1 (UniProt Q9NWT1): the log2 fold change was inactive: -0.175.
Same read-out and setting: under PES1 (UniProt O00541) stands inactive: -0.172; under PDRG1 (UniProt Q9NUG6), inactive: -0.063.
PDXK (UniProt O00764): the log2 fold change was inactive: -0.034.
Still for that read-out and setting: under PABPC4 isoform 3 (UniProt Q13310) stands inactive: -0.081; under PCMT1 isoform 2 (UniProt P22061), inactive: -0.008.
On the same count and under the same terms, for PEPD (UniProt P12955) the value was inactive: 0.016; for PDCD10 (UniProt Q9BUL8), inactive: -0.017.
Same read-out and setting: for PAPOLA (UniProt P51003) the value was inactive: 0.041.
For PARVB (UniProt Q9HBI1), the log2 fold change is inactive: 0.014.
Same read-out and setting: under PANX1 (UniProt Q96RD7) stands inactive: -0.037.
Still for that read-out and setting: for PAFAH1B1 (UniProt P43034) the value was inactive: 0.011.
On to PDIA3 (UniProt P30101), for which the log2 fold change is inactive: -0.019.
With PDHB (UniProt P11177), the log2 fold change is inactive: 0.057.
Still for that read-out and setting: for PAIP1 (UniProt Q9H074) the value was inactive: 0.04; for PDCL (UniProt Q13371), inactive: -0.011.

Compound in the next assay: Cn1cncc1[C@@](N)(c1ccc(Cl)cc1)c1ccc2c(c1)c(-c1cccc(Cl)c1)cc(=O)n2C [tipifarnib]
Described as above. Summed up:
as §1
With PEX12 (UniProt O00623), the log2 fold change is inactive: -0.031.
For the target PDHX (UniProt O00330), the log2 fold change is inactive: 0.292.
Still for that read-out and setting: for PANK4 (UniProt Q9NVE7) the value was inactive: 0.109; for PDSS1 (UniProt Q5T2R2), inactive: 0.072.
On the same count and under the same terms, for PDLIM1 (UniProt O00151) the value was inactive: -0.045; for PDLIM4 (UniProt P50479), inactive: -0.021.
On the same count and under the same terms, under PAK2 (UniProt Q13177) stands inactive: -0.005.
On to PACSIN2 (UniProt Q9UNF0), for which the log2 fold change was inactive: -0.018.
For the target PDXDC1 (UniProt Q6P996), the log2 fold change is inactive: -0.083.
As for PASK (UniProt Q96RG2), the log2 fold change was inactive: -0.062.
The same measure, in the same setting: for PARD6B (UniProt Q9BYG5) the value was inactive: -0.155; for PEBP1 (UniProt P30086), inactive: -0.016.
Regarding PCYOX1 (UniProt Q9UHG3), the log2 fold change is inactive: -0.019.
Consider PDXP (UniProt Q96GD0), for which the log2 fold change is inactive: -0.022.
The same measure, in the same setting: for PER3 isoform 2 (UniProt P56645) the value was inactive: 0.053; for PEX1 (UniProt O43933), inactive: 0.046.
On the same count and under the same terms, for PARK7 (UniProt Q99497) the value was inactive: -0.096; for PAK1IP1 (UniProt Q9NWT1), inactive: 0.168.
Still for that read-out and setting: for PES1 (UniProt O00541) the value was inactive: 0.091.
Regarding PDRG1 (UniProt Q9NUG6), the log2 fold change is inactive: -0.013.
In the case of PDXK (UniProt O00764), the log2 fold change was inactive: -0.012.
As for PABPC4 isoform 3 (UniProt Q13310), the log2 fold change is inactive: 0.041.
For the target PCMT1 isoform 2 (UniProt P22061), the log2 fold change was inactive: -0.049.
On the same count and under the same terms, for PEPD (UniProt P12955) the value was inactive: -0.059; for PDCD10 (UniProt Q9BUL8), inactive: -0.056; for PAPOLA (UniProt P51003), inactive: -0.033.
PARVB (UniProt Q9HBI1): the log2 fold change was inactive: -0.046.
Same read-out and setting: for PANX1 (UniProt Q96RD7) the value was inactive: -0.009.
Turning to PAFAH1B1 (UniProt P43034), the log2 fold change was inactive: -0.006.
On the same count and under the same terms, for PDIA3 (UniProt P30101) the value was inactive: 0.119; for PDHB (UniProt P11177), inactive: 0.096.
Turning to PAIP1 (UniProt Q9H074), the log2 fold change is inactive: -0.022.
On the same count and under the same terms, for PDCL (UniProt Q13371) the value was inactive: -0.025.

Compound in another assay: FC(F)(F)c1ccc(/C=C/c2nc(COc3ccc(CCCCn4ccnn4)cc3)co2)cc1 [mubritinib]
The description is as above. The method, boiled down: as §1
For PEX12 (UniProt O00623), the log2 fold change is inactive: 0.137.
Take PDHX (UniProt O00330): the log2 fold change is inactive: -0.229.
Still for that read-out and setting: for PANK4 (UniProt Q9NVE7) the value was inactive: -0.08; for PDSS1 (UniProt Q5T2R2), inactive: 0.034; for PDLIM1 (UniProt O00151), inactive: 0.009.
Take PDLIM4 (UniProt P50479): the log2 fold change was inactive: 0.057.
Still for that read-out and setting: for PAK2 (UniProt Q13177) the value was inactive: 0.027; for PACSIN2 (UniProt Q9UNF0), inactive: 0.189; for PDXDC1 (UniProt Q6P996), inactive: -0.058.
Same read-out and setting: for PASK (UniProt Q96RG2) the value was inactive: 0.068.
As for PARD6B (UniProt Q9BYG5), the log2 fold change is inactive: 0.105.
For PEBP1 (UniProt P30086), the log2 fold change was inactive: 0.018.
As to PCYOX1 (UniProt Q9UHG3), the log2 fold change is inactive: -0.021.
As for PDXP (UniProt Q96GD0), the log2 fold change was inactive: 0.031.
Still for that read-out and setting: for PER3 isoform 2 (UniProt P56645) the value was inactive: -0.01.
Consider PEX1 (UniProt O43933), for which the log2 fold change was inactive: 0.028.
For the target PARK7 (UniProt Q99497), the log2 fold change was inactive: 0.013.
On the same count and under the same terms, for PAK1IP1 (UniProt Q9NWT1) the value was inactive: -0.137; for PES1 (UniProt O00541), inactive: -0.047; for PDRG1 (UniProt Q9NUG6), inactive: 0.044.
On the same count and under the same terms, under PDXK (UniProt O00764) stands inactive: 0.015; under PABPC4 isoform 3 (UniProt Q13310), inactive: -0.009.
For PCMT1 isoform 2 (UniProt P22061), the log2 fold change was inactive: 0.051.
Still for that read-out and setting: for PEPD (UniProt P12955) the value was inactive: -0.002.
Same read-out and setting: under PDCD10 (UniProt Q9BUL8) stands inactive: 0.009.
The same measure, in the same setting: for PAPOLA (UniProt P51003) the value was inactive: -0.003.
As to PARVB (UniProt Q9HBI1), the log2 fold change is inactive: 0.075.
As for PANX1 (UniProt Q96RD7), the log2 fold change was inactive: 0.037.
On the same count and under the same terms, under PAFAH1B1 (UniProt P43034) stands inactive: 0.018; under PDIA3 (UniProt P30101), inactive: -0.123.
Turning to PDHB (UniProt P11177), the log2 fold change is inactive: 0.12.
For the target PAIP1 (UniProt Q9H074), the log2 fold change is inactive: 0.048.
The same measure, in the same setting: for PDCL (UniProt Q13371) the value was inactive: 0.146.
